{"sequences": {"note": "By UniProt entry, the sequences of proteins in these tests, tags left out. Where a name states a change or a piece, a line headed by the entry shows the natural chain unless it says otherwise.", "UniProt Q86UK7": "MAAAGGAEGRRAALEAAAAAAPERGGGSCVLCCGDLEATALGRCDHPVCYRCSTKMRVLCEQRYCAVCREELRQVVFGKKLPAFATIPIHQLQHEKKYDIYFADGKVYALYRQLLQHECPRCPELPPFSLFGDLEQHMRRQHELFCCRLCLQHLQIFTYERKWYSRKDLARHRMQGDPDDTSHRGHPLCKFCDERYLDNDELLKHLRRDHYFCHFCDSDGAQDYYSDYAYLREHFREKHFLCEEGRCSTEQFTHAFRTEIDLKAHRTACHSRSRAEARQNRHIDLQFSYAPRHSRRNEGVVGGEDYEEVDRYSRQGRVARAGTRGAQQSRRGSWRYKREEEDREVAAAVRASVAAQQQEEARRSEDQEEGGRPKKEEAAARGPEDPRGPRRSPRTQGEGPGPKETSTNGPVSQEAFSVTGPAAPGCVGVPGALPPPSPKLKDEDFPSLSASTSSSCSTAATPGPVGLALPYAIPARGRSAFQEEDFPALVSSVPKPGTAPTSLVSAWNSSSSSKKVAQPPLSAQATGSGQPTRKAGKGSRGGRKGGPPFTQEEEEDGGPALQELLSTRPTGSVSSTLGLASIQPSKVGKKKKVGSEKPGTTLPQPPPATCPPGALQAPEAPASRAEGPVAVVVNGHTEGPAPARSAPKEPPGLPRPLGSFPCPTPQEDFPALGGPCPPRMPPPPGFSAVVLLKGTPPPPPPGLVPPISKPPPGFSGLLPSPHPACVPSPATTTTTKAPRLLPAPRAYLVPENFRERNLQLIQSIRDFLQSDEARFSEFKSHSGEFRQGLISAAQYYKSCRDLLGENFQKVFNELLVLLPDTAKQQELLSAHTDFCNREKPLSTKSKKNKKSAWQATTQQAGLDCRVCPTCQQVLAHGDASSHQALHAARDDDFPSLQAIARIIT", "UniProt Q5BKZ1": "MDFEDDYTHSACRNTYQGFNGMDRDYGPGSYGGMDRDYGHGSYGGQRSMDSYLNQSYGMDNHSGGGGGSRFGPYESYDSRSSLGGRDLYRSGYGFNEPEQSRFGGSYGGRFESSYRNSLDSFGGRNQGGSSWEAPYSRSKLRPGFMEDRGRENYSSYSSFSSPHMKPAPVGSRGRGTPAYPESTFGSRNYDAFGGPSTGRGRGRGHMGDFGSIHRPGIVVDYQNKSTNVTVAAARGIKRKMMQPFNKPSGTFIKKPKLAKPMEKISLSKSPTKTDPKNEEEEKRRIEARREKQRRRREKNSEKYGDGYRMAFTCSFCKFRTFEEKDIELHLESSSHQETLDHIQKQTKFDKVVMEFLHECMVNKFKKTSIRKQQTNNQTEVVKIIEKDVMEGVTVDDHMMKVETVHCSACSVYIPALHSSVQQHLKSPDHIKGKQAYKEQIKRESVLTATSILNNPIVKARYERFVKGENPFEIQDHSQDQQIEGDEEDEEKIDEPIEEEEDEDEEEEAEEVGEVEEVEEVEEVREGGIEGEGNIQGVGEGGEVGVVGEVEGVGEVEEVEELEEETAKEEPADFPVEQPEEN", "UniProt Q96ME7": "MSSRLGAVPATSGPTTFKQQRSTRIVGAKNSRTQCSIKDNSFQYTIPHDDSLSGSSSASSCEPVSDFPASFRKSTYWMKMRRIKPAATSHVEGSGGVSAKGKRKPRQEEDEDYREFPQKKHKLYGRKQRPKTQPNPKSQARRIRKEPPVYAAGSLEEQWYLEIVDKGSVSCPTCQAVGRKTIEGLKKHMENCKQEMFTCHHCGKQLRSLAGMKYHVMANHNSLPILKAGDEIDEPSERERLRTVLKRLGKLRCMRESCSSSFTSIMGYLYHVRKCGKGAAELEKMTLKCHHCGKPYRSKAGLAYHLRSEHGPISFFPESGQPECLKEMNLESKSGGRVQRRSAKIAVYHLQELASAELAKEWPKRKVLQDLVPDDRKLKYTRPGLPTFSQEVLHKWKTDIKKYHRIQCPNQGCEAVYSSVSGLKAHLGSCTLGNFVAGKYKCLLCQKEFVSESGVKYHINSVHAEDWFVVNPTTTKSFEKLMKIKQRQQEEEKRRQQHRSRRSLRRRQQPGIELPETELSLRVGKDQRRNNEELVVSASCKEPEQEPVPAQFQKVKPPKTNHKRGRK", "UniProt Q92610": "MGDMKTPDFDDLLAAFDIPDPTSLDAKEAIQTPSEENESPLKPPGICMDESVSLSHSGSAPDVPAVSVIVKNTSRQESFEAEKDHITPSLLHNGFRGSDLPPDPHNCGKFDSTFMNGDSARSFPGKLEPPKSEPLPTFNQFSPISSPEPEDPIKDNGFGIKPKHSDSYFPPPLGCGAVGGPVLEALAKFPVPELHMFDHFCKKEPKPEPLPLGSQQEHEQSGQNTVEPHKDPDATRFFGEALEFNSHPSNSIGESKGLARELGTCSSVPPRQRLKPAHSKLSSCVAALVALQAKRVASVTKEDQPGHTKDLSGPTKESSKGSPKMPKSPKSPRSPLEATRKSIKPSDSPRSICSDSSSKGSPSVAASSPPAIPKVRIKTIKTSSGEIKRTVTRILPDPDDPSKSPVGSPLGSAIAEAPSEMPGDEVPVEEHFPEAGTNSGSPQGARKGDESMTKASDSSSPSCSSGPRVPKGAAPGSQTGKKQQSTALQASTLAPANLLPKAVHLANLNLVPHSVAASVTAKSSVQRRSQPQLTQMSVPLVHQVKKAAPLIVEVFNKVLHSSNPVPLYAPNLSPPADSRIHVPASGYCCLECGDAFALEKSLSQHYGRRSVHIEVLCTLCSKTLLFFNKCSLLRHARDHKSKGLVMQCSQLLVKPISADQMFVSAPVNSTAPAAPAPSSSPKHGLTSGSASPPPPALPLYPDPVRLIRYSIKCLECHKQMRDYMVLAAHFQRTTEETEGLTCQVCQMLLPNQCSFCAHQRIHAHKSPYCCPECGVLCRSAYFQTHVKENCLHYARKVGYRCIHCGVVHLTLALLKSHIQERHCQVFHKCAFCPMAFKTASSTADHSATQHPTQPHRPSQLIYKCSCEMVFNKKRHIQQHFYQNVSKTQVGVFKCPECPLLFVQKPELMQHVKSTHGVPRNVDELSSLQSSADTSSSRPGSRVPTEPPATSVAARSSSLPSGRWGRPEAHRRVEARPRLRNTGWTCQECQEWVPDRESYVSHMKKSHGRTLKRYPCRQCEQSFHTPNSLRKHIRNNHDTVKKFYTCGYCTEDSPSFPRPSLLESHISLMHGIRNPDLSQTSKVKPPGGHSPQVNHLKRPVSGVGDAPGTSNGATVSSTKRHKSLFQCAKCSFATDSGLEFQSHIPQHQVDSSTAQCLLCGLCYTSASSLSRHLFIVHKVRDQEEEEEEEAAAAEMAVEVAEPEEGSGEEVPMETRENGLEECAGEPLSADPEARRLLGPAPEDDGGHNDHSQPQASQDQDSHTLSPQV", "UniProt Q8N1G0": "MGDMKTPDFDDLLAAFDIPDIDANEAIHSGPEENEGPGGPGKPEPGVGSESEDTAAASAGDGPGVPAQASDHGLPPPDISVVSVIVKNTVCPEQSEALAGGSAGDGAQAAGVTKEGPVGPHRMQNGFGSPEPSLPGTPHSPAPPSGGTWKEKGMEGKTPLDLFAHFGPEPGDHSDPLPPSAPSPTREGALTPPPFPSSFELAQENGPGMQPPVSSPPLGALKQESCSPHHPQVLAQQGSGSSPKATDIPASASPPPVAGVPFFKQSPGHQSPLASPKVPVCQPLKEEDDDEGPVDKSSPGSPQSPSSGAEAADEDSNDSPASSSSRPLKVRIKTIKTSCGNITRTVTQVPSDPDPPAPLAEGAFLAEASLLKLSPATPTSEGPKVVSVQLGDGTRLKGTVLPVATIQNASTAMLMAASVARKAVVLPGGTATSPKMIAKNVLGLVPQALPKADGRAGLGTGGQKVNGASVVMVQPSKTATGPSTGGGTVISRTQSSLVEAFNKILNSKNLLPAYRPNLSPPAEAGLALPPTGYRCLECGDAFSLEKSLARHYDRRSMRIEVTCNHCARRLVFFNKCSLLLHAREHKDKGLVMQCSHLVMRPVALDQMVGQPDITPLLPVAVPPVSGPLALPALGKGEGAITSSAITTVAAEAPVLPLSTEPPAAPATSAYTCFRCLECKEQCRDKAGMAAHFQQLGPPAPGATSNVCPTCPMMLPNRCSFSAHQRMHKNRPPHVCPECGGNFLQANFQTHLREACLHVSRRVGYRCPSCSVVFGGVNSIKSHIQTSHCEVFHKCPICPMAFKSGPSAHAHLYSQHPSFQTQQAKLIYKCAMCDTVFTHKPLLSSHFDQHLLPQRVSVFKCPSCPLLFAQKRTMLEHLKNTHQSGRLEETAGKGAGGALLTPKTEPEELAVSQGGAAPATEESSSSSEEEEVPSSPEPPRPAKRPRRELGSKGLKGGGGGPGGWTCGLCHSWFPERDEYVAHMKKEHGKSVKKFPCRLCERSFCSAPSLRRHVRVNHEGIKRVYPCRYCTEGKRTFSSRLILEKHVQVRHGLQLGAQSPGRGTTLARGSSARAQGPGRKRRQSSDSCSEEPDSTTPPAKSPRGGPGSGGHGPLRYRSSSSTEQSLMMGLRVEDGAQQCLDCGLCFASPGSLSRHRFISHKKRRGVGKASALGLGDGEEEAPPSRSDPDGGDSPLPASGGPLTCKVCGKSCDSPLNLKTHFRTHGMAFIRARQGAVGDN", "UniProt Q14966": "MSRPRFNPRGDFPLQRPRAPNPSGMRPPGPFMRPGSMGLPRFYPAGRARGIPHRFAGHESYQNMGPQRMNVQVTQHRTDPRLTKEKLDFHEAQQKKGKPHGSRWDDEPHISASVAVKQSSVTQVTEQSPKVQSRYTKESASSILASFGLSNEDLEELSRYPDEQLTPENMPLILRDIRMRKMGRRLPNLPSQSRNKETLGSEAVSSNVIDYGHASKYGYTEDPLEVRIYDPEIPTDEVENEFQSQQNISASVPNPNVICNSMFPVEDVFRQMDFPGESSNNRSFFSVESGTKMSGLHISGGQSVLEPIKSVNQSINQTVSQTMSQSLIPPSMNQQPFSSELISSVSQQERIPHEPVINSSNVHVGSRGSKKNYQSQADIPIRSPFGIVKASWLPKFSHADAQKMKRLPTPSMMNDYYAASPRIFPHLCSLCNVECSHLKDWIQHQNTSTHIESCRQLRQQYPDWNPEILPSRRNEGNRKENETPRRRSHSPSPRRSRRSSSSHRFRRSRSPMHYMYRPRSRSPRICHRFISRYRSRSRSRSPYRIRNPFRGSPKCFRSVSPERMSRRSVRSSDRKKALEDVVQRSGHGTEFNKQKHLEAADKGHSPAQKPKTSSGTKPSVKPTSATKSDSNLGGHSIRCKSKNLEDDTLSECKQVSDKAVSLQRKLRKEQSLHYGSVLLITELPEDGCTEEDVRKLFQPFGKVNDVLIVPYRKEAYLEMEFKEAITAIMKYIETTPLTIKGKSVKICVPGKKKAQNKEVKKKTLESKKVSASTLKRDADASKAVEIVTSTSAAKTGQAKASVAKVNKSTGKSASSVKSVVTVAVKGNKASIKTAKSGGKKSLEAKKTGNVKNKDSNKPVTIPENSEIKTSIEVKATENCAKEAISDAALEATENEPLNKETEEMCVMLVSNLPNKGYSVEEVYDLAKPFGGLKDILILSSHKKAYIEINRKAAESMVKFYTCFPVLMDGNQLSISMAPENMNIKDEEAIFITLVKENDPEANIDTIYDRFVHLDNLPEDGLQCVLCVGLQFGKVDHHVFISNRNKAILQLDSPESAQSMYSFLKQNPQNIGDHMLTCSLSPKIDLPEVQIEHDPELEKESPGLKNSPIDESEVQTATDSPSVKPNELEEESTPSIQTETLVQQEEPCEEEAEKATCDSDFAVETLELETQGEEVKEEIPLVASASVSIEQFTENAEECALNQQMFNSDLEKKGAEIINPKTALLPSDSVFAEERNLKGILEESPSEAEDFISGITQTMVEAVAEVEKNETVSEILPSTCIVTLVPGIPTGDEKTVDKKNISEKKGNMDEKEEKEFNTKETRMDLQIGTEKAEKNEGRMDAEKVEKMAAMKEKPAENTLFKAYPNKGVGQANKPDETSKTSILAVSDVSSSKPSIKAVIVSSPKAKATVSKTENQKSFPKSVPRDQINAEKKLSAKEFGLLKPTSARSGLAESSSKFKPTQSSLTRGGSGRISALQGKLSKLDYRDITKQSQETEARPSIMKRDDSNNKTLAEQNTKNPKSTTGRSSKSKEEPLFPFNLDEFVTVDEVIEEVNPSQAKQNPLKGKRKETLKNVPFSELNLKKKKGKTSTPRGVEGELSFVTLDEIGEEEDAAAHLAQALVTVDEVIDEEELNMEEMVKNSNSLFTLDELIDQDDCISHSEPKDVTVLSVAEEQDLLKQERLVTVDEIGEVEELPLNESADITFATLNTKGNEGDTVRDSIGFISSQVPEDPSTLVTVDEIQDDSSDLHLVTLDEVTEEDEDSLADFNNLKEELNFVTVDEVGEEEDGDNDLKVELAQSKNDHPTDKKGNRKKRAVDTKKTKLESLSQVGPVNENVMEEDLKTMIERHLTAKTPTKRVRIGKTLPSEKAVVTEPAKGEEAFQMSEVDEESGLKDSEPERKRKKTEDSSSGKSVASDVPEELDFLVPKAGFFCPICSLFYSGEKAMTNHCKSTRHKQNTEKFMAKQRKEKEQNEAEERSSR"}, "source": "the supplement of paper PMC12067093", "about": "“Discovery and optimisation of a covalent ligand for TRIM25 and its application to targeted protein ubiquitination” (Chemical Science, 2025)", "note": "The other results are listed elsewhere or left out.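 Note: competitive chemoproteomic profiling in live THP-1 cells with an iodoacetamide desthiobiotin (IA-DTB) probe, comparing probe-labelled peptide intensities in compound-treated cells against DMSO-treated controls.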"}
{"compound": "CC1Cc2ccccc2N1C(=O)C1CCCN(C1)C(=O)CCl (mixture of isomers) [TRIM25 ligand 11 (diastereomer mixture)]", "assay": "probe-labelled cysteine peptide fold change vs DMSO (competition) (log2 fold change); higher = less target engagement (more negative = stronger competition)", "settings": "10 µM; THP-1; incubation time: 4 h"}
{"target": "ZNF101_Q8IZC7_321_CPTSLQAHER (UniProt Q8IZC7)", "probe-labelled cysteine peptide fold change": 0.124}
{"target": "ZNF428_Q96B54_114_LCCPATAPQEAPAPEGR (UniProt Q96B54)", "probe-labelled cysteine peptide fold change": -0.082}
{"target": "ZNF598_Q86UK7_867_VCPTCQQVLAHGDASSHQALHAAR (UniProt Q86UK7)", "probe-labelled cysteine peptide fold change": 0.175}
{"target": "ZNF580_Q9UK33_122_VSHSDLKPFTCGACGK (UniProt Q9UK33)", "probe-labelled cysteine peptide fold change": -0.051}
{"target": "ZNF521_Q96K83_537_QVHCDLSGSR (UniProt Q96K83)", "probe-labelled cysteine peptide fold change": 0.031}
{"target": "ZNF460_Q14592_313_KPFACSECGK (UniProt Q14592)", "probe-labelled cysteine peptide fold change": 0.0432}
{"target": "ZFAND3_Q9H8U3_181_CGYVFCMLHR (UniProt Q9H8U3)", "probe-labelled cysteine peptide fold change": -0.0979}
{"target": "ZNF326_Q5BKZ1_12_MDFEDDYTHSACR (UniProt Q5BKZ1)", "probe-labelled cysteine peptide fold change": 0.121}
{"target": "ZNF512_Q96ME7_192_HMENCK (UniProt Q96ME7)", "probe-labelled cysteine peptide fold change": -0.0596}
{"target": "ZNF207_O43670_13_QLKPWCWYCNR (UniProt O43670)", "probe-labelled cysteine peptide fold change": -0.412}
{"target": "ZNF143_P52747_364_THTGERPYYCTEPGCGR (UniProt P52747)", "probe-labelled cysteine peptide fold change": 0.214}
{"target": "ZNF106_Q9H2Y7_1131_IQILQGLQETYEPSEHPDQVPCSLTR (UniProt Q9H2Y7)", "probe-labelled cysteine peptide fold change": 0.268}
{"target": "ZNF592_Q92610_592_IHVPASGYCCLECGDAFALEK (UniProt Q92610)", "probe-labelled cysteine peptide fold change": -0.227}
{"target": "ZNF687_Q8N1G0_718_CSFSAHQR (UniProt Q8N1G0)", "probe-labelled cysteine peptide fold change": 0.09}
{"target": "ZNF483_Q8TF39_392_IHLGDRSQKCSK (UniProt Q8TF39)", "probe-labelled cysteine peptide fold change": 0.384}
{"target": "ZFPL1_O95159_16_VTNLFCFEHR (UniProt O95159)", "probe-labelled cysteine peptide fold change": 0.0234}
{"target": "ZMYM2_Q9UBW7_331_VTCANCK (UniProt Q9UBW7)", "probe-labelled cysteine peptide fold change": -0.0194}
{"target": "ZMYND8_Q9ULU4_1062_SCTQSATAPQQEADAEVNTETLNK (UniProt Q9ULU4)", "probe-labelled cysteine peptide fold change": 0.0214}
{"target": "ZNF292_O60281_1909_VNKPFVCQNQGCNYSAMTK (UniProt O60281)", "probe-labelled cysteine peptide fold change": -0.227}
{"target": "ZNF609_O15014_178_SEGVGTCSEK (UniProt O15014)", "probe-labelled cysteine peptide fold change": -0.0654}
{"target": "ZNF512_Q96ME7_540_NNEELVVSASCK (UniProt Q96ME7)", "probe-labelled cysteine peptide fold change": 0.0591}
{"target": "ZNF597_Q96LX8_386_TCEESFALDSELACHQK (UniProt Q96LX8)", "probe-labelled cysteine peptide fold change": -0.108}
{"target": "ZNF638_Q14966_1156_ATCDSDFAVETLELETQGEEVK (UniProt Q14966)", "probe-labelled cysteine peptide fold change": 0.163}
{"target": "ZNF326_Q5BKZ1_314_MAFTCSFCK (UniProt Q5BKZ1)", "probe-labelled cysteine peptide fold change": 0.0214}
{"target": "ZMYND8_Q9ULU4_567_TIESCK (UniProt Q9ULU4)", "probe-labelled cysteine peptide fold change": -0.191}
{"target": "ZFYVE26_Q68DK2_60_RVEDILQALVVCPNLLR (UniProt Q68DK2)", "probe-labelled cysteine peptide fold change": -0.164}
{"target": "ZNF217_O75362_93_HVLMQHRPTLCEPAVLR (UniProt O75362)", "probe-labelled cysteine peptide fold change": 0.0289}
{"target": "ZNF687_Q8N1G0_576_CSLLLHAR (UniProt Q8N1G0)", "probe-labelled cysteine peptide fold change": 0.101}
{"target": "ZNF280D_Q6N043_449_NLLCPFCLK (UniProt Q6N043)", "probe-labelled cysteine peptide fold change": -0.143}
{"target": "ZNF598_Q86UK7_150_LCLQHLQIFTYER (UniProt Q86UK7)", "probe-labelled cysteine peptide fold change": -0.0404}
{"target": "ZNF638_Q14966_1947_AMTNHCK (UniProt Q14966)", "probe-labelled cysteine peptide fold change": -0.149}
{"target": "ZNF598_Q86UK7_835_QQELLSAHTDFCNR (UniProt Q86UK7)", "probe-labelled cysteine peptide fold change": -0.155}
{"target": "ZNF451_Q9Y4E5_940_IGCFFLHPR (UniProt Q9Y4E5)", "probe-labelled cysteine peptide fold change": -0.144}
{"target": "ZMYND11_Q15326_258_DTCHELDELQLCK (UniProt Q15326)", "probe-labelled cysteine peptide fold change": 0.0905}
{"target": "ZNF316_A6NFI3_808_AHTGERPYACGECGR (UniProt A6NFI3)", "probe-labelled cysteine peptide fold change": -0.0968}
{"target": "ZNF592_Q92610_790_ENCLHYAR (UniProt Q92610)", "probe-labelled cysteine peptide fold change": 0.0187}
{"target": "ZNF592_Q92610_648_GLVMQCSQLLVK (UniProt Q92610)", "probe-labelled cysteine peptide fold change": 0.0751}
{"target": "ZNF281_Q9Y2X9_291+294_HVLIHTGERPFQCSQCSMGFIQK (UniProt Q9Y2X9)", "probe-labelled cysteine peptide fold change": -0.0527}
{"target": "ZNF644_Q9H582_1233_MDLTMHSALDCK (UniProt Q9H582)", "probe-labelled cysteine peptide fold change": -0.102}
